Experimental data from PMC4427335.
These are yes or no findings as the source states them, for the method shown. For some assays here: Binding can be weak; no strength is given. For some assays here: In cells and extracts the contact can be indirect. Blank lines part the entries; values can stand above or below the molecule they belong to.

Protein sequences, listed by entry. Tags and fused reporters are not part of them. Lines headed by an entry give the natural chain unless they say otherwise; changes in a name come on top.
UniProt P62196: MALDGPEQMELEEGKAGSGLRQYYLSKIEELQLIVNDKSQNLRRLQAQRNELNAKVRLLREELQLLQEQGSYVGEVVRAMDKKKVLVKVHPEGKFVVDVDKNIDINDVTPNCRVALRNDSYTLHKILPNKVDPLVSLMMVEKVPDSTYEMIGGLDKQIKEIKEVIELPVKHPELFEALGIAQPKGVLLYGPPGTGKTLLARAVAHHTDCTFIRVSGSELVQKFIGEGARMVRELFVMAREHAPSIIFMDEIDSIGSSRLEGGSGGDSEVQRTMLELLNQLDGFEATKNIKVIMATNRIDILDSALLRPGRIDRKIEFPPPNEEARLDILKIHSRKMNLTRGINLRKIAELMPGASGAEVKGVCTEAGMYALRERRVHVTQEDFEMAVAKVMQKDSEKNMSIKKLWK
UniProt P45481: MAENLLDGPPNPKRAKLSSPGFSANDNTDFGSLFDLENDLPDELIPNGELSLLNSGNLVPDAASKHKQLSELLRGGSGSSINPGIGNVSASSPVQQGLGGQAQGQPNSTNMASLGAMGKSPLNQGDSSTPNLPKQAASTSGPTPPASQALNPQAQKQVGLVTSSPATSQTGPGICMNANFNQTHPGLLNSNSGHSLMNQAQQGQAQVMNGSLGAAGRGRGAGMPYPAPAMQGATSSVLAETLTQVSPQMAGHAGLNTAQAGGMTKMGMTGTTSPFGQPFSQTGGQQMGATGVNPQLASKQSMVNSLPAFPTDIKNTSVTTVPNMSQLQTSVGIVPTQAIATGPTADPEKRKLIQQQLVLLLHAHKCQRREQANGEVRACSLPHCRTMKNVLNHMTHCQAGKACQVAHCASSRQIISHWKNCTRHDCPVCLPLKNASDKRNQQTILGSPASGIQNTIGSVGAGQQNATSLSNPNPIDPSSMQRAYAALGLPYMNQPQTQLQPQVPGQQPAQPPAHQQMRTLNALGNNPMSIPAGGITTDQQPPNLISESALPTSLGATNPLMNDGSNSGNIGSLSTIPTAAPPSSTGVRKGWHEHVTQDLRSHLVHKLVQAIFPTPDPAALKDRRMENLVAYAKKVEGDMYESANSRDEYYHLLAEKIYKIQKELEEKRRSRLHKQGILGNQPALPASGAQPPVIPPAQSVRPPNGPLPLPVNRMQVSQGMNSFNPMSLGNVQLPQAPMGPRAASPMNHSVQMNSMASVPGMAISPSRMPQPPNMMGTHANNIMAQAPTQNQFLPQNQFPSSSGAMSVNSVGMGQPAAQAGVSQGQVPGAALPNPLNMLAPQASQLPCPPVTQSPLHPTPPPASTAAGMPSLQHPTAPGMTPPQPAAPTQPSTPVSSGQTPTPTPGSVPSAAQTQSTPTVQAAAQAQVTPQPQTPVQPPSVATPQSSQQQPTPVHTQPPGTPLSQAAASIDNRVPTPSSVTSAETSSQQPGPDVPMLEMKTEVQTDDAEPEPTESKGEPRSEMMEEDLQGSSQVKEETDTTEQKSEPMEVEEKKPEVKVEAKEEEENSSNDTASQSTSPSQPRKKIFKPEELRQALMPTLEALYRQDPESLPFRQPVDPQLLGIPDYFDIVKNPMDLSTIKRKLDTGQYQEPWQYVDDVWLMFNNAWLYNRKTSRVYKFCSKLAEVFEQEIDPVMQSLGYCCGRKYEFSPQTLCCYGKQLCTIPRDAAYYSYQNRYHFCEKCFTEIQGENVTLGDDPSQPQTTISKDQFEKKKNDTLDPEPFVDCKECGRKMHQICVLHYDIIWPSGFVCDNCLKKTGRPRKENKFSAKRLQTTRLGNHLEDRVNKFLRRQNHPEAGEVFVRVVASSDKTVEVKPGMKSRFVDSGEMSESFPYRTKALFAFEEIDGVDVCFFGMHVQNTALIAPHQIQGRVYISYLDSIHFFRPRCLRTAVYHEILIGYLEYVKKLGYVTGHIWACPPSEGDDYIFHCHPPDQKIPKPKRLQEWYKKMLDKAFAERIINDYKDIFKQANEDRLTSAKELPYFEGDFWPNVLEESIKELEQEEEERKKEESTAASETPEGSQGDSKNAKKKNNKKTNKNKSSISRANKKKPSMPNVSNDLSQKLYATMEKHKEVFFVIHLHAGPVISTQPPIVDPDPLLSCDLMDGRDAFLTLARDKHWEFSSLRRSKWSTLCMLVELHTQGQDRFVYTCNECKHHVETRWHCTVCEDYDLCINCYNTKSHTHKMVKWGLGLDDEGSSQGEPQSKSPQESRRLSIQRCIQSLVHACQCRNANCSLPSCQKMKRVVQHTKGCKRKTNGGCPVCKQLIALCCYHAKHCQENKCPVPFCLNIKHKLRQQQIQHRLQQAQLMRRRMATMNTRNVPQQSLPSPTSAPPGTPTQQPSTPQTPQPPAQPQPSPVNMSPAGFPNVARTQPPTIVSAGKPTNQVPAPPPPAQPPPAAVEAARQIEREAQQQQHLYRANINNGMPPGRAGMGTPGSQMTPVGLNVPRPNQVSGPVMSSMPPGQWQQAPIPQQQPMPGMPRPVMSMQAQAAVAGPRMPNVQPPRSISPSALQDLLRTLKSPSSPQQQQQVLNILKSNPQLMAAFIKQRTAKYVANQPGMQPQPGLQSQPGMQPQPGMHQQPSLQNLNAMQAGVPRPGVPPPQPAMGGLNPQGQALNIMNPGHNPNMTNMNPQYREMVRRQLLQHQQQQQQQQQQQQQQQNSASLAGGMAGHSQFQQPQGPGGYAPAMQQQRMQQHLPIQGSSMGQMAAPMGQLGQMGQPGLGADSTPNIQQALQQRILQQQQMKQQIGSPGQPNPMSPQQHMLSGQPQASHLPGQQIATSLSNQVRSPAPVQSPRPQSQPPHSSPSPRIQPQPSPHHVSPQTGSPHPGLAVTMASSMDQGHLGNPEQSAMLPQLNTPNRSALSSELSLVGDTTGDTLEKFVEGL
UniProt B2RWS6: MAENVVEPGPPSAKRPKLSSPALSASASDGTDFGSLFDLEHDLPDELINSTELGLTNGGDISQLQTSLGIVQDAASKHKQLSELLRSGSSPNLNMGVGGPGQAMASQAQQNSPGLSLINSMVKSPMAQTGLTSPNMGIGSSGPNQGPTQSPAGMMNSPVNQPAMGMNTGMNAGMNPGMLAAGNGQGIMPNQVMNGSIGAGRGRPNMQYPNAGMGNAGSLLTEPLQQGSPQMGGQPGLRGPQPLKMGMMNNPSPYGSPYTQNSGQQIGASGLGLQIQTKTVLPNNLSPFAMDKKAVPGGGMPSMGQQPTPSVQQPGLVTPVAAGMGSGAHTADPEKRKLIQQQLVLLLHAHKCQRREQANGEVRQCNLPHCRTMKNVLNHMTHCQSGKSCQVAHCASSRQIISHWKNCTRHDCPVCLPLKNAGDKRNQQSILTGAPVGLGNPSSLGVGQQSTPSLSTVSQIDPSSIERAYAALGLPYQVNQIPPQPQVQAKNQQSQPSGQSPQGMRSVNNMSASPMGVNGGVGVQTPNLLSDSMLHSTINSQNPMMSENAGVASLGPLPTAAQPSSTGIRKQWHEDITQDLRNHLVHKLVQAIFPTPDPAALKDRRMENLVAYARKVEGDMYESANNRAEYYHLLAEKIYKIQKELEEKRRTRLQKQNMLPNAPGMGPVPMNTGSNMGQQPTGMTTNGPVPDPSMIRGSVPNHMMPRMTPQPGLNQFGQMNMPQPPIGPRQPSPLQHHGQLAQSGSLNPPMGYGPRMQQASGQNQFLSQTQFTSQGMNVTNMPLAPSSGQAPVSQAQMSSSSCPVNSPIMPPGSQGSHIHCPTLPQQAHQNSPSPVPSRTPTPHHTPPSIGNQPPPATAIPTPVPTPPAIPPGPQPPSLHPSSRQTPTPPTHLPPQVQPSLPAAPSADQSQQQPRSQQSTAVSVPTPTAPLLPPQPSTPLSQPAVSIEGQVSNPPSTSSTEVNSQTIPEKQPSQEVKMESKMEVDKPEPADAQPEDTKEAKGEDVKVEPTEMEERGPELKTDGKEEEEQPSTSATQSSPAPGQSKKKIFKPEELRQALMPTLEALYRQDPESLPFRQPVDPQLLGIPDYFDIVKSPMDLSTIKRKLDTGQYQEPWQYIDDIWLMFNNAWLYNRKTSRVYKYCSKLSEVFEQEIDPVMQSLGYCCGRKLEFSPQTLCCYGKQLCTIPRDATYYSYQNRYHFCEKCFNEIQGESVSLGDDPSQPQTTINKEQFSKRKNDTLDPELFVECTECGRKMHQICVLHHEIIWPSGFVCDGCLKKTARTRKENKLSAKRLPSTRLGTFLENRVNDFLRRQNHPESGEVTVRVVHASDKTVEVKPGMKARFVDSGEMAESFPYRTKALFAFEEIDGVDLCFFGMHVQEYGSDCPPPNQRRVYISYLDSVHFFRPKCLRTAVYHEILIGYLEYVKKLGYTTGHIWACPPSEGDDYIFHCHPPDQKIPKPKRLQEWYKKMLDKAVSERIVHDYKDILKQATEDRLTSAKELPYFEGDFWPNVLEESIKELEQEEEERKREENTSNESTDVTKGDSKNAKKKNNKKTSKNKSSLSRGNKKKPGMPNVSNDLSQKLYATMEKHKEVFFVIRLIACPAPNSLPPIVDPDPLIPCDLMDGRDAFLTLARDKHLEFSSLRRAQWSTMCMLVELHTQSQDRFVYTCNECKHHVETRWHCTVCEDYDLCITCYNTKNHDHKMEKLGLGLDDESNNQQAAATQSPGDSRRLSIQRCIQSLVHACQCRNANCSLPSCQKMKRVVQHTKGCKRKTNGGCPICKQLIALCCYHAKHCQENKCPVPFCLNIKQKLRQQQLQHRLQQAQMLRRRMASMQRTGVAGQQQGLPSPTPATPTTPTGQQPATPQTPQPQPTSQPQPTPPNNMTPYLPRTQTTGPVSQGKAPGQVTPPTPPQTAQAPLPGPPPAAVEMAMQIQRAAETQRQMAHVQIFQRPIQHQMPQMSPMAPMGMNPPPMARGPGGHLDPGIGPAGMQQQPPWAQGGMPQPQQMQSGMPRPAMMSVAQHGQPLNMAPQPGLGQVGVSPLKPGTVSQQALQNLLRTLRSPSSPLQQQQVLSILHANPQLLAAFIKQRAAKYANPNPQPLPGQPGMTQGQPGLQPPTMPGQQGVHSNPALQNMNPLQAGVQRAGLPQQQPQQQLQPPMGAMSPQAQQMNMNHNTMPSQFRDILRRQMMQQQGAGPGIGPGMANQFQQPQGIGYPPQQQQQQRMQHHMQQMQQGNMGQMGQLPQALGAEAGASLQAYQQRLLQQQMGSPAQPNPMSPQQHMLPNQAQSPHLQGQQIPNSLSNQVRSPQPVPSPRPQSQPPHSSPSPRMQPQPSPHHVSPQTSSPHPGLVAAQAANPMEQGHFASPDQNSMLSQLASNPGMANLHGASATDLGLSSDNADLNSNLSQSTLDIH

Tests used:
FLAG-tagged PSMC5 = FLAG-tagged PSMC5 (UniProt P62196); assay: co-IP; Neuro 2A cells co-transfected with ΔFosB or ΔFosB-LZM and FLAG-tagged PSMC5 or its mutants; lysed in RIPA buffer two days later; immunoprecipitation with anti-FLAG (nonimmune IgG as control), Protein G beads, 3 hr at 4°C; Western blot with anti-FosB/ΔFosB
Δ2ΔFosB = target: T1, Δ2ΔFosB (UniProt P13346); assay: two-hybrid; MaV203 yeast; bait Δ2ΔFosB in pDBLeu, prey mouse brain library in pPC86; SC-medium lacking leucine, tryptophan and histidine with 10 mM 3-aminotriazole; reporters His3, Ura3, LacZ; positive clones retested by retransformation
T1 sequence: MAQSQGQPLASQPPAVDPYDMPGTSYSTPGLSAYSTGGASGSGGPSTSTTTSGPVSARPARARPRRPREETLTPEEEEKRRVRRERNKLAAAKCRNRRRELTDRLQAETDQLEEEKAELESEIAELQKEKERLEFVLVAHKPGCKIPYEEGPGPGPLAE

[1] = target: CBP (CREB binding protein), in Neuro2A cells (mouse (endogenous in Neuro2A)) (UniProt P45481); assay: co-IP; Neuro2A cells transfected with MYC-tagged ΔFosB forms or FLAG-tagged PSMC5 forms; cell extracts immunoprecipitated with anti-CBP or anti-p300 antibody (endogenous CBP, p300); Western blot with anti-MYC or anti-FLAG
[2] = target: p300, in Neuro2A cells (mouse (endogenous in Neuro2A)) (UniProt B2RWS6); assay: as above
[3] = target: PSMC5-Δcoiled-coil domain (UniProt P62196); assay: co-IP; Neuro 2A cells co-transfected with ΔFosB or ΔFosB-LZM and FLAG-tagged PSMC5 or its mutants; lysed in RIPA buffer two days later; immunoprecipitation with anti-FLAG (nonimmune IgG as control), Protein G beads, 3 hr at 4°C; Western blot with anti-FosB/ΔFosB

binding (FLAG-tagged PSMC5): no binding
Molecule: ΔFosB-LZM (from UniProt P13346-2)

binding (Δ2ΔFosB): binds
Molecule: Ankyrin repeat domain 35 (mouse)

binding [1]: no binding
binding [2]: no binding
Molecule: MYC-tagged ΔFosB-LZM (from UniProt P13346-2)

binding [3]: no binding
B1: ΔFosB (pcDNA3.1-ΔFosB) (protein, UniProt P13346-2 1-237)
chain: MFQAFPGDYDSGSRCSSSPSAESQYLSSVDSFGSPPTAAASQECAGLGEMPGSFVPTVTAITTSQDLQWLVQPTLISSMAQSQGQPLASQPPAVDPYDMPGTSYSTPGLSAYSTGGASGSGGPSTSTTTSGPVSARPARARPRRPREETLTPEEEEKRRVRRERNKLAAAKCRNRRRELTDRLQAETDQLEEEKAELESEIAELQKEKERLEFVLVAHKPGCKIPYEEGPGPGPLAE
